From publication PMC4450052
No constants are given. Whether binding was seen depends on the method and setting. In cells and extracts the contact can be indirect. Some entries that bind do so weakly or less than the wild type. Where a sequence is shown, tags or fusion partners need not be part of it.

T1: HA-tagged Tem1 (S. cerevisiae) (UniProt P38987)
T1 sequence: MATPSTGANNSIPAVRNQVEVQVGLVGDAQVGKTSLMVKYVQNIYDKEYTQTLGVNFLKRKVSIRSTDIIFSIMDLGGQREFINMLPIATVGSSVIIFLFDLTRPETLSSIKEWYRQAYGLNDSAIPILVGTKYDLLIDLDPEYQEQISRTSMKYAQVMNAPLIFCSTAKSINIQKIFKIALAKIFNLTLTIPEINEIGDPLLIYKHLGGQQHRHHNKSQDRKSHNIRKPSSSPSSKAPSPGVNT

T2: Bub2-Q132L tagged with three HA epitopes (S. cerevisiae) (UniProt P26448)
T2 sequence: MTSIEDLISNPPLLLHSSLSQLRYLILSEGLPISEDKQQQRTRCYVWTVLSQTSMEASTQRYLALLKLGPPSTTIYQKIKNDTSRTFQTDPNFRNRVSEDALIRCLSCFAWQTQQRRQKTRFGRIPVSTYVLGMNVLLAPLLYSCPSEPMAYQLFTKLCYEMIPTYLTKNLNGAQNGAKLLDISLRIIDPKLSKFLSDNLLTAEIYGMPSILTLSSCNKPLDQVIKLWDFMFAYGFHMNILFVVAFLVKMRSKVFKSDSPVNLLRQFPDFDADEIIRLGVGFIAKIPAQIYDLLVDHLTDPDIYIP

T3: HA-tagged Tem1-Q79L (S. cerevisiae) (UniProt P38987)
T3 sequence: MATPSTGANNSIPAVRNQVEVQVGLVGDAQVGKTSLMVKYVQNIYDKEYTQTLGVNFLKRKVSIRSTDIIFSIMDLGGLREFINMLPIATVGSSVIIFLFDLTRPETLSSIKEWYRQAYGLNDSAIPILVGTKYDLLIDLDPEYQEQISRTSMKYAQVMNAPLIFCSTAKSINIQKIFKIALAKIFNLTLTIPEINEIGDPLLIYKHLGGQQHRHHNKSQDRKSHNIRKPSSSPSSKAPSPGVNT

T4: Bub2 tagged with three HA epitopes (S. cerevisiae) (UniProt P26448)
T4 sequence: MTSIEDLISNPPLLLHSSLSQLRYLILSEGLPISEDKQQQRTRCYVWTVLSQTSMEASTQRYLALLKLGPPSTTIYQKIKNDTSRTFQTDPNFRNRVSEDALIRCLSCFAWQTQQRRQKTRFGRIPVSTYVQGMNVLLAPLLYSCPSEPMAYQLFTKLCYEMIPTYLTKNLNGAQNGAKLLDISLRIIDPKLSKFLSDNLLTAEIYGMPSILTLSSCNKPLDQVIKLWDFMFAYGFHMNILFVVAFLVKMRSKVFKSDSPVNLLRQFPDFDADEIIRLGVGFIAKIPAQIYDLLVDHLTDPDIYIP

B1: GFP-tagged Bfa1 (protein, UniProt P47113 1-574)
chain: MSIRPLTLNGLDEPETSFEELNTTLPRFQSHETLTLEENVPPLSTSTYIPPPSSVGTSDTGTVFSNSTSAFWSNKQADDDQDMEVDQDDEFLNDFQEFQNKKDDFDDAIKTNFHLRNGCRTGPFKNDIFAEEFDRKLSLEDKPRLKQPRSMMELKPKRKLSNSVTSRNLRSGNSVRFKKSMPNLALVNPAIREEEEDEEREREDQREFNYKIDNDTQDTILAKFSSDDEGDFLTGFEELEGEAIDETISSNDKESADHPRFLKKSSSSLPLKISPAQYDIVKHDELLTPGLHRRQRDWNTQQELDSFKEKRSVRHCSNQNVQLNGPAKIKTIKQQIDHNTPMKKGSMIYNPKTMKWEGNENVLSKFSDVDTANRKALLIKNKLQRDADSKKQKYSDLQHARATSRNQKVIGNMILDEQNLRWVSVSEEEADPFAGIPEINLPPVGKSMKKRSSSPFLRSKSQVNTPFVSNDNDGVYQSTAAQARLRKYHSMRTLNGTTETPEISSTFHLSSRALEKFYHEENRWCKKLASWFIPRDETIISVDEETIMDESTVNSKRKSYMYEIRNMVINSTKD
B2: GFP-tagged Tem1 (protein, UniProt P38987 1-245)
chain: MATPSTGANNSIPAVRNQVEVQVGLVGDAQVGKTSLMVKYVQNIYDKEYTQTLGVNFLKRKVSIRSTDIIFSIMDLGGQREFINMLPIATVGSSVIIFLFDLTRPETLSSIKEWYRQAYGLNDSAIPILVGTKYDLLIDLDPEYQEQISRTSMKYAQVMNAPLIFCSTAKSINIQKIFKIALAKIFNLTLTIPEINEIGDPLLIYKHLGGQQHRHHNKSQDRKSHNIRKPSSSPSSKAPSPGVNT
B3: Bub2 tagged with 3PK epitopes (protein, UniProt P26448 1-306)
chain: MTSIEDLISNPPLLLHSSLSQLRYLILSEGLPISEDKQQQRTRCYVWTVLSQTSMEASTQRYLALLKLGPPSTTIYQKIKNDTSRTFQTDPNFRNRVSEDALIRCLSCFAWQTQQRRQKTRFGRIPVSTYVQGMNVLLAPLLYSCPSEPMAYQLFTKLCYEMIPTYLTKNLNGAQNGAKLLDISLRIIDPKLSKFLSDNLLTAEIYGMPSILTLSSCNKPLDQVIKLWDFMFAYGFHMNILFVVAFLVKMRSKVFKSDSPVNLLRQFPDFDADEIIRLGVGFIAKIPAQIYDLLVDHLTDPDIYIP
B4: Bub2-GFP (protein, UniProt P26448 1-306)
chain: MTSIEDLISNPPLLLHSSLSQLRYLILSEGLPISEDKQQQRTRCYVWTVLSQTSMEASTQRYLALLKLGPPSTTIYQKIKNDTSRTFQTDPNFRNRVSEDALIRCLSCFAWQTQQRRQKTRFGRIPVSTYVQGMNVLLAPLLYSCPSEPMAYQLFTKLCYEMIPTYLTKNLNGAQNGAKLLDISLRIIDPKLSKFLSDNLLTAEIYGMPSILTLSSCNKPLDQVIKLWDFMFAYGFHMNILFVVAFLVKMRSKVFKSDSPVNLLRQFPDFDADEIIRLGVGFIAKIPAQIYDLLVDHLTDPDIYIP

Legend:
Experiment in all cases: co-IP; HA-tagged protein immunoprecipitated from 1 mg of total yeast extract by an HA-affinity resin (Roche); western blot with anti-GFP, anti-PK and anti-HA antibodies
[1] = biological target: T1, HA-tagged Tem1 (S. cerevisiae)
[2] = biological target: T2, Bub2-Q132L tagged with three HA epitopes (S. cerevisiae)
[3] = biological target: T3, HA-tagged Tem1-Q79L (S. cerevisiae)
[4] = biological target: T4, Bub2 tagged with three HA epitopes (S. cerevisiae)

Binder | binding [1] | binding [2] | binding [3] | binding [4]
B1 | binds | binds | binds | binds
B2 |  | binds |  | 
B3 |  |  | binds | 
B4 | binds |  | binds | 
